# In the supplement of paper PMC11732987, “Enantioselective OTUD7B fragment discovery through chemoproteomics screening and high-throughput optimisation” (Communications Chemistry, 2025):
# Chains of the proteins cited; added tags and fusions are not shown. Lines headed by an entry give the natural chain unless they say otherwise; changes in a name come on top. Residues count along the entry.
# UniProt Q8NG68: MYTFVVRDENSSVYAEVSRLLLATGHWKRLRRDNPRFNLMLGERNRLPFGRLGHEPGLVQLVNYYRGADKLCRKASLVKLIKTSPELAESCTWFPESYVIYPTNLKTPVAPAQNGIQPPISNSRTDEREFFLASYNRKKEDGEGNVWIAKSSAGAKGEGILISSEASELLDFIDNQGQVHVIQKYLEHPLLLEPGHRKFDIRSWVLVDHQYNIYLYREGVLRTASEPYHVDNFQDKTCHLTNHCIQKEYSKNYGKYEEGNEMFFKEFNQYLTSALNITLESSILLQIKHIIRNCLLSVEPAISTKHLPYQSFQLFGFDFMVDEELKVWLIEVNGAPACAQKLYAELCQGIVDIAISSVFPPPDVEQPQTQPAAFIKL
# UniProt Q6ZU65, whole entry, looked up: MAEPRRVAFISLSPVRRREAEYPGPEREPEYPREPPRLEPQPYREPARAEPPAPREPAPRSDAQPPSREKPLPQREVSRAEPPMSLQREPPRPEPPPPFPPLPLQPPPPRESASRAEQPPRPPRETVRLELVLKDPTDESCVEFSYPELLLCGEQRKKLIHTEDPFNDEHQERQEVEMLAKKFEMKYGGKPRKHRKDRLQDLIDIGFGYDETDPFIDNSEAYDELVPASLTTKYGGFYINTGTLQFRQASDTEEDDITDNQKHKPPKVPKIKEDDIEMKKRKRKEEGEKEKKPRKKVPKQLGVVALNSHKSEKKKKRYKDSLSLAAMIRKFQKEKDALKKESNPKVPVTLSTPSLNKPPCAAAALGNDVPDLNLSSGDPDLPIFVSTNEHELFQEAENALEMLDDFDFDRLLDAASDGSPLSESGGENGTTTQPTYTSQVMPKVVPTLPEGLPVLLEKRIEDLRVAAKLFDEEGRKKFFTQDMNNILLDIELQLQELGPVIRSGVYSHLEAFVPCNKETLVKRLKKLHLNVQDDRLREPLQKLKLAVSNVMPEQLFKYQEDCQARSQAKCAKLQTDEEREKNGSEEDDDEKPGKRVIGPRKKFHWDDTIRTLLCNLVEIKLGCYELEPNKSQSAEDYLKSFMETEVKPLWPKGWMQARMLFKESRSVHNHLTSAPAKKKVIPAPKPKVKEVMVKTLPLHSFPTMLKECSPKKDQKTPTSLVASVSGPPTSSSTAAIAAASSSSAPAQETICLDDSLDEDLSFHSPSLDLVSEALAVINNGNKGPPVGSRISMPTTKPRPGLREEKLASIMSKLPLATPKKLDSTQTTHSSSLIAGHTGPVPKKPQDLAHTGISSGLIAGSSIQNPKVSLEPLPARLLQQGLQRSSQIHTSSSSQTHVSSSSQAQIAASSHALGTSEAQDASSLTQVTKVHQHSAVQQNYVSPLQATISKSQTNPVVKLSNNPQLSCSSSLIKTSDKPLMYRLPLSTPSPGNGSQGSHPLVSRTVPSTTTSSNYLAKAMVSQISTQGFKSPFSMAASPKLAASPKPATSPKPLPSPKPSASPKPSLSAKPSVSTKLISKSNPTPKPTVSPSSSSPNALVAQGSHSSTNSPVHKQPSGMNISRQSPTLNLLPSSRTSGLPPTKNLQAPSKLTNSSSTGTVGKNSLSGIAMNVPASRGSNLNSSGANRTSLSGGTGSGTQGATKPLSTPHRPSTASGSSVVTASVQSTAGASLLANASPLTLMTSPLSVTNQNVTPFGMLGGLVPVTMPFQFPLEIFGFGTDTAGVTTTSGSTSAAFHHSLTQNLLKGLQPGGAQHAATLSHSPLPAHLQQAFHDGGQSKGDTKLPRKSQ
# UniProt Q15361: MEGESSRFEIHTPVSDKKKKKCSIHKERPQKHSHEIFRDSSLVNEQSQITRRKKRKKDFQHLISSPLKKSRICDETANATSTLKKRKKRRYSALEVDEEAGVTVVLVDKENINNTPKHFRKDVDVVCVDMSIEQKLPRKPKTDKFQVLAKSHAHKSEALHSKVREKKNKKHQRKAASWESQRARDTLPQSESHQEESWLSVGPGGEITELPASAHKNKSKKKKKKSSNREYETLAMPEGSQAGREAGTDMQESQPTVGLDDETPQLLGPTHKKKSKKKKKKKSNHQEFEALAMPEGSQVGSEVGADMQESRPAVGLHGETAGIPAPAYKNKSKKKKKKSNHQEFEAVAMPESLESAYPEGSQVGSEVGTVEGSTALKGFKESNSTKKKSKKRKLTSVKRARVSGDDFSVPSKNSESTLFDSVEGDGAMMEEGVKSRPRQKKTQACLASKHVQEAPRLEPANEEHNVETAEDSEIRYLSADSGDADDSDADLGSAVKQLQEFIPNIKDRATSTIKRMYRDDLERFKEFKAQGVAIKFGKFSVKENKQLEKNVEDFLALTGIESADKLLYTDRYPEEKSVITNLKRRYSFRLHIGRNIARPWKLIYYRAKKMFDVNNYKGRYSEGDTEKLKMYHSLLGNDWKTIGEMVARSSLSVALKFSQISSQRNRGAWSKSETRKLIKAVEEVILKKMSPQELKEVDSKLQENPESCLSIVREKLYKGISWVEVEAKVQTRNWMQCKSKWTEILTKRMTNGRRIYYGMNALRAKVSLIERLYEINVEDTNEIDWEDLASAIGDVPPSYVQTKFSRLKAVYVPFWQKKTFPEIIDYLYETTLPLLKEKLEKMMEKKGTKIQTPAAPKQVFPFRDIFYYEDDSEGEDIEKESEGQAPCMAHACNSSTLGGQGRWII
# UniProt Q5VYS8: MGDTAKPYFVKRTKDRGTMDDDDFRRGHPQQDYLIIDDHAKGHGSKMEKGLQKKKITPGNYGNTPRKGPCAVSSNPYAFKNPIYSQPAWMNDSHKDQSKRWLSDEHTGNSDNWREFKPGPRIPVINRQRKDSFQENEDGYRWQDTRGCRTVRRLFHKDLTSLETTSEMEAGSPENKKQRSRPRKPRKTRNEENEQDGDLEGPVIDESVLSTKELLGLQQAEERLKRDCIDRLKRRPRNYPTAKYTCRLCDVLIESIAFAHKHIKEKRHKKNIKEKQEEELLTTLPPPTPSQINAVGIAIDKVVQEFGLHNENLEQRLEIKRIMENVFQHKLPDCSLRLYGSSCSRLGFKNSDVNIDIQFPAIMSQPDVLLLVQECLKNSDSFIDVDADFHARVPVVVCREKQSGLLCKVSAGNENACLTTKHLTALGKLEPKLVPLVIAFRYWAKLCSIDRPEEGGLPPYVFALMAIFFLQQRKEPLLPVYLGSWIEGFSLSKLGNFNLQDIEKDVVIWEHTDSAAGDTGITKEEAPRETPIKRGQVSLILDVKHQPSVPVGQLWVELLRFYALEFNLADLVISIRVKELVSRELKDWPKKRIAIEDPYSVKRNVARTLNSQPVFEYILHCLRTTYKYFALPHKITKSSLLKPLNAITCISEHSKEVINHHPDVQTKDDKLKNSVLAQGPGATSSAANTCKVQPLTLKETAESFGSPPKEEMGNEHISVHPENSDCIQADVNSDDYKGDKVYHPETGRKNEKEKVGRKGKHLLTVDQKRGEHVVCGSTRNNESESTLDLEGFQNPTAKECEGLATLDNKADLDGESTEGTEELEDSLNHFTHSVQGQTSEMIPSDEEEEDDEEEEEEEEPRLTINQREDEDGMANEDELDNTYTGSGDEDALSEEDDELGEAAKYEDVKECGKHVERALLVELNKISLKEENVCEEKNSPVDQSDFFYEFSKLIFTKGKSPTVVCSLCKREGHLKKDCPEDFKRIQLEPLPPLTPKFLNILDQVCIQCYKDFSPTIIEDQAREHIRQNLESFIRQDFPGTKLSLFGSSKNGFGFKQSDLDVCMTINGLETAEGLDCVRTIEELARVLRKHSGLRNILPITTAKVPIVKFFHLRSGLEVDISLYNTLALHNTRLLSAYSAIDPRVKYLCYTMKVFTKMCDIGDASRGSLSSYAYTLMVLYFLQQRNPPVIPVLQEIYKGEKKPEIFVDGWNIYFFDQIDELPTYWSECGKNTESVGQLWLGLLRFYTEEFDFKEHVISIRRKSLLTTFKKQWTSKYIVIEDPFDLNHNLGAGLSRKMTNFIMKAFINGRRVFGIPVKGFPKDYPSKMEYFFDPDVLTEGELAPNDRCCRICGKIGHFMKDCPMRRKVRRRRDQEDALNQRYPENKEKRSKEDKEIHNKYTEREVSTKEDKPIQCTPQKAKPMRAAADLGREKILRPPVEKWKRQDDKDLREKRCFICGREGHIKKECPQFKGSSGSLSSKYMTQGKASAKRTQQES
# UniProt Q8NCE0: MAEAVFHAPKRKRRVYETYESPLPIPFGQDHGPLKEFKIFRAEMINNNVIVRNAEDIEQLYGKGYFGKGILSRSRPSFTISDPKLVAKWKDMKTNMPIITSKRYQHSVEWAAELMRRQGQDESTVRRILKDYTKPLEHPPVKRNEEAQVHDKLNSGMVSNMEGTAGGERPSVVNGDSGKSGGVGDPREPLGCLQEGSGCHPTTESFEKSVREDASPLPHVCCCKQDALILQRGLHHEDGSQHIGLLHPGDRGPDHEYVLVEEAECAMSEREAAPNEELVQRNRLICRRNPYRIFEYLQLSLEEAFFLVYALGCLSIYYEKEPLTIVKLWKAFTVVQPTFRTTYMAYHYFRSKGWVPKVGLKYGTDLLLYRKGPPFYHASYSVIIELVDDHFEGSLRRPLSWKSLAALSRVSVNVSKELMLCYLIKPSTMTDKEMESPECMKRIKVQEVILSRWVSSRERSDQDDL
# UniProt Q7L0Y3, 72-95: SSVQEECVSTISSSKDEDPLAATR
# UniProt P11441: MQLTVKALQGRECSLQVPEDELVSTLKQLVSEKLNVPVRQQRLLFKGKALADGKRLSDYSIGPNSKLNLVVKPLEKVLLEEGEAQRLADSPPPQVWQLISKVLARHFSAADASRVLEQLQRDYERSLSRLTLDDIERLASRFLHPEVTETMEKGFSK
# UniProt Q96RT7, whole entry, looked up: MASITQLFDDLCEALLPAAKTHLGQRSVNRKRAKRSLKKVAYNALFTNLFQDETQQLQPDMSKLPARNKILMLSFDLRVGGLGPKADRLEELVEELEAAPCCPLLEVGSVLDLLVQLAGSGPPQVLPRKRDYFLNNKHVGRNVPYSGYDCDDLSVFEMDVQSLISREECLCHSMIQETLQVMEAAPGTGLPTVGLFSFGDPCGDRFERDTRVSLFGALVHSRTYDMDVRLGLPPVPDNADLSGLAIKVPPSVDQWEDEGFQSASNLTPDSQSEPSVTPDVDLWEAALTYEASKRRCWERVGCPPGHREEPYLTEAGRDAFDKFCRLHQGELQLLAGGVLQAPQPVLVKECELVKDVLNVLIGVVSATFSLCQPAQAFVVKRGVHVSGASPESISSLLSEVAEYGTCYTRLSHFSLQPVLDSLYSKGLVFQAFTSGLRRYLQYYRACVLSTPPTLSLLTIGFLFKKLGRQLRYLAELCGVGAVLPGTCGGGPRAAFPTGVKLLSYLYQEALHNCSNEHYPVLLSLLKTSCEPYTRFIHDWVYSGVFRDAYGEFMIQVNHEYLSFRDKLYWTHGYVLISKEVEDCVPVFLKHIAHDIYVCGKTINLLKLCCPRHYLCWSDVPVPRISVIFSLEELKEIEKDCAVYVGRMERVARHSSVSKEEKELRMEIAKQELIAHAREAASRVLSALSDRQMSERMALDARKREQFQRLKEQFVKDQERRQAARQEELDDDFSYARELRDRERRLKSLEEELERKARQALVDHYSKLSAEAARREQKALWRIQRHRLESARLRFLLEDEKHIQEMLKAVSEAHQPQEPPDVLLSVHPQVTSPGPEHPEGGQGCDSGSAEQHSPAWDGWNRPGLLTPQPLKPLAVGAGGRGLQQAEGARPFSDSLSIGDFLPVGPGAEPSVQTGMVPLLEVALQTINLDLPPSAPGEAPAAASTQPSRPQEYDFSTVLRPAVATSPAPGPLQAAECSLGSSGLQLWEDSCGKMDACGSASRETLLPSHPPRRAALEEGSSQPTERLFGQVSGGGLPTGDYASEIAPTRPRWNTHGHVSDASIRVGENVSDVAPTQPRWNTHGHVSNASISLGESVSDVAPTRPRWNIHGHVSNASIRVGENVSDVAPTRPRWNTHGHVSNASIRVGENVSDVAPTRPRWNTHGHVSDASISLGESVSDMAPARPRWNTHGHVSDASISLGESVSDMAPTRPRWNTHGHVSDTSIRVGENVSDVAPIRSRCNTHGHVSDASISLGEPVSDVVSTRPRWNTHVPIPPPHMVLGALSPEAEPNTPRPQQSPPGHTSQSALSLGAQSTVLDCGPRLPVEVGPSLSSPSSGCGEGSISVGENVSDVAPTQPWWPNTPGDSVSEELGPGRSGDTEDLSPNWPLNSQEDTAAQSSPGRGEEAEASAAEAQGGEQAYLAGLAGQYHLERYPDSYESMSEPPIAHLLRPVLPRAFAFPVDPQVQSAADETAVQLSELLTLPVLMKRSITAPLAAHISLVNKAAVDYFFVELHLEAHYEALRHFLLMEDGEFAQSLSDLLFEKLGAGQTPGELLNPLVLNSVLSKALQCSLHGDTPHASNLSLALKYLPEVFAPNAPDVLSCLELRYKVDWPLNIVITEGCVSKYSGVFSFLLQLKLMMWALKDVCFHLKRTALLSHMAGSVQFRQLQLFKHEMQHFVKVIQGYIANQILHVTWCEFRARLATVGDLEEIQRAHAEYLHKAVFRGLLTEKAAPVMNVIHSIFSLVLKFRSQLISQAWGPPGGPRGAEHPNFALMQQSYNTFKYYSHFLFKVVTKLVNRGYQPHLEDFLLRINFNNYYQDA
# The other results are listed elsewhere or left out. The data scatter; read single values as rough.
# Key:
# [1] = compound: ClCC(=O)N[C@@H]1CCCc2ccccc12; assay: log2 mean competition ratio of IA-DTB cysteine labelling (DMSO/compound) (log2 ratio); higher = stronger cysteine engagement by compound; settings: treatment time: 4 h, cell line lysate: HEK293T
# Protocol: (§1)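 IA-DTB competitive cysteine chemoproteomics in HEK293T RIPA lysate. Lysates were treated with compound 29 or 30 at 50 or 200 µM for 4 h, then IA-DTB (500 µM, 1 h), trypsin-digested, NeutrAvidin-enriched and analysed by diaPASEF. Competition ratio = intensity DMSO / intensity compound (n=4 treated, n=64 DMSO); binding: mean log2 CR ≥ 1 and p ≤ 0.05 plus QC filters. Target is the cysteine site.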
# [2] = compound: ClCC(=O)N[C@H]1CCCc2ccccc12; assay: as above; settings: treatment time: 4 h, cell line lysate: HEK293T
# Protocol: as §1
Target,log2 mean competition ratio ([1]; 50 µM),log2 mean competition ratio ([1]; 200 µM),log2 mean competition ratio ([2]; 50 µM),log2 mean competition ratio ([2]; 200 µM)
UBA3 C139 (UniProt Q8TBC4),-0.233,-0.308,-0.709,-0.487
TSTD2 C324 (UniProt Q5T7W7),-0.11,0.223,-0.244,0.126
TTC21B C937 (UniProt Q7Z4L5),0.0305,0.405,0.0886,0.138
UBAP2 C208,0.0217,0.101,0.6,0.218
TUT4 C302 (UniProt Q5TAX3),-0.0867,-0.0639,-0.166,0.182
TRPS1 C174 (UniProt Q9UHF7),-0.207,-0.468,-0.0263,-0.289
TTL C294 (UniProt Q8NG68),-0.182,-0.316,0.0495,-0.0374
TRRAP C546 (UniProt Q9Y4A5),-0.239,-0.184,-0.0649,-0.0414
TUBE1 C205 (UniProt Q9UJT0),-0.257,0.18,-0.805,-0.116
UBE2Z C100 (UniProt Q9H832),-0.0257,-0.362,0.591,-0.318
TTC7A C199 (UniProt Q9ULT0),-0.203,0.0808,-0.0543,-0.0668
TUFM C290 (UniProt P49411),-0.0711,-0.0549,-0.138,-0.0711
TUBG1;TUBG2 C26;(C26),-0.308,-0.0124,-0.569,-0.392
UBR4 C2222 (UniProt Q5T4S7),0.027,0.0077,-0.137,0.141
TYK2 C736 (UniProt P29597),-0.0785,-0.0139,0.374,-0.059
UBE2O C598,-0.0208,-0.153,-0.378,-0.0738
UBN2 C562 (UniProt Q6ZU65),0.0794,0.403,-0.0856,0.568
UBA2 C30,0.344,0.447,-0.305,0.163
TRPM7 C1411 (UniProt Q96QT4),0.0785,0.241,0.319,0.255
TTF1 C73 (UniProt Q15361),0.305,0.0327,0.159,-0.15
TXNRD2 C500 (UniProt Q9NNW7),-0.197,0.286,0.173,0.167
UACA C453 (UniProt Q9BZF9),-0.00873,-0.191,-0.178,0.0192
TUT7 C649 (UniProt Q5VYS8),0.521,0.108,-0.342,-0.0121
TRMT6 C492 (UniProt Q9UJA5),-0.171,-0.0643,0.194,0.251

# Random excerpt: 2 entries already listed, in no set order.
Target,log2 mean competition ratio ([1]; 50 µM),log2 mean competition ratio ([1]; 200 µM),log2 mean competition ratio ([2]; 50 µM),log2 mean competition ratio ([2]; 200 µM)
TUBE1 C205 (UniProt Q9UJT0),-0.257,0.18,-0.805,-0.116
TTF1 C73 (UniProt Q15361),0.305,0.0327,0.159,-0.15

# (list continues)

Target,log2 mean competition ratio ([1]; 50 µM),log2 mean competition ratio ([1]; 200 µM),log2 mean competition ratio ([2]; 50 µM),log2 mean competition ratio ([2]; 200 µM)
TXNDC9 C94 (UniProt O14530),0.0999,-0.0793,-0.275,-0.108
TRMT5 C321 (UniProt Q32P41),0.292,0.0195,-0.108,-0.156
TSEN15 C13,-0.254,0.101,-0.0191,-0.00887
TTLL12 C98,-0.151,-0.0629,-0.189,-0.0505
TSEN2 C265 (UniProt Q8NCE0),0.378,-0.0976,0.213,-0.138
UBE2Q1 C157 (UniProt Q7Z7E8),,,-0.449,-0.126
TRMT10C C78 (UniProt Q7L0Y3),-0.342,-0.0685,0.108,-0.281
UBA3 C28 (UniProt Q8TBC4),,,0.677,0.136
TTC4 C63 (UniProt O95801),0.00125,0.0261,-0.355,-0.299
TXLNG C127 (UniProt Q9NUQ3),,,-0.0416,0.23
TUT4 C825 (UniProt Q5TAX3),,,0.134,0.126
TUBGCP2 C733 (UniProt Q9BSJ2),,,0.158,0.314
UBE4A C202 (UniProt Q14139),0.00446,-0.308,0.00286,-0.111
UBE2N C87 (UniProt P61088),,,-0.118,-0.0852
TTC39C C97 (UniProt Q8N584),,,0.462,-0.045
TUFT1 C267 (UniProt Q9NNX1),-0.288,-0.114,0.0162,-0.135
UBL4A C13 (UniProt P11441),-0.126,-0.0353,-0.263,-0.114
UBE2Z C254 (UniProt Q9H832),-0.288,-0.0746,0.223,0.384
TUBGCP6 C598 (UniProt Q96RT7),-0.223,0.329,-0.193,0.0126
TRRAP C2279 (UniProt Q9Y4A5),,,-0.166,-0.233
TTI1 C351 (UniProt O43156),,,-0.0164,-0.0758
TXNDC16 C821 (UniProt Q9P2K2),,,-0.0381,0.00863
TSPYL1 C160 (UniProt Q9H0U9),,,0.044,-0.0846
U2SURP C918 (UniProt O15042),,,-0.184,-0.161
